This is one part of the list. Single values are uncertain, as repeats are few or missing.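 The assay uses a mixed pool of 41 HAP1 clones in which 61 cancer-associated proteins bear intron-inserted fluorescent tags, and clones are distinguished by image pattern. Results are compared against DMSO-treated control wells, and the BRD4 degrader dBET6 is the positive control.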
The compounds below were run against XPO1 (intron 15 mScarlet tag, HAP1) (UniProt O14980) (assay: XPO1 fluorescence intensity change vs DMSO (log2 fold change); higher = more XPO1 protein). Conditions: 6 h.

By UniProt entry, the sequences of proteins in these tests, tags left out.
UniProt O14980, whole entry: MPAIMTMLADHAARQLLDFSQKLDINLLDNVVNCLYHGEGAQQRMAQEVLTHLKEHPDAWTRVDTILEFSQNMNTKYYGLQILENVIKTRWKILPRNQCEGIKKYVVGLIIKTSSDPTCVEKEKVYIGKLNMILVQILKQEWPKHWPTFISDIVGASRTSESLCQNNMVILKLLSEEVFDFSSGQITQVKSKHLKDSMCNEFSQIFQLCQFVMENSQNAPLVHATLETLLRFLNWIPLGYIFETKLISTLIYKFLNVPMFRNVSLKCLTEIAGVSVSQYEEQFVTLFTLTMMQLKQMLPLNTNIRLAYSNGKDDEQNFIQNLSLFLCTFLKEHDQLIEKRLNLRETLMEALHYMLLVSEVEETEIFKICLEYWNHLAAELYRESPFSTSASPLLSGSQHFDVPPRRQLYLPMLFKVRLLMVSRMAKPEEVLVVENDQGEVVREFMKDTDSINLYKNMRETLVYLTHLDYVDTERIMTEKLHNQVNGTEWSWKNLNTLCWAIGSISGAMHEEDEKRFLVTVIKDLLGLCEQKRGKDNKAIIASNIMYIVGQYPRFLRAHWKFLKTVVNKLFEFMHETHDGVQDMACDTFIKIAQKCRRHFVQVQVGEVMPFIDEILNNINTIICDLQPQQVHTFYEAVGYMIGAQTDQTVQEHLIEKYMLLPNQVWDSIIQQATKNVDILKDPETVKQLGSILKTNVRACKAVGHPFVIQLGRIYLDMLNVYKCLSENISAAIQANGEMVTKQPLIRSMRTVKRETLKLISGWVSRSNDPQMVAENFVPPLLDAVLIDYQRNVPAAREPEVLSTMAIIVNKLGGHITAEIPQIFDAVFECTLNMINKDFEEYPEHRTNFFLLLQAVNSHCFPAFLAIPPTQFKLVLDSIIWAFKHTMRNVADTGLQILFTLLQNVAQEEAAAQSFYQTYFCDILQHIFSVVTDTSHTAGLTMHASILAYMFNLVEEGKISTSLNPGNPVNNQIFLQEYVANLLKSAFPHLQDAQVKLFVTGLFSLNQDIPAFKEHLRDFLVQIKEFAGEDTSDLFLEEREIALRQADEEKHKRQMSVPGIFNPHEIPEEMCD

SMILES	XPO1 fluorescence intensity change (log2)
CC1(C)[C@H](C(=O)O)N2C(=O)C[C@H]2S1(=O)=O [Sulbactam] (10 µM)	0.0075
N#C[C@@H]1C[C@@H]2C[C@@H]2N1C(=O)[C@@H](N)C12CC3CC(CC(O)(C3)C1)C2 [Saxagliptin] (9.99933 µM)	-0.00917
CCCCCOC(=O)Nc1nc(=O)n([C@@H]2O[C@H](C)[C@@H](O)[C@H]2O)cc1F [Capecitabine] (20 µM)	-0.053
COc1cnc(NS(=O)(=O)c2ccc(N)cc2)nc1 [Sulfameter] (10 µM)	0.135
N#Cc1ccc(C(c2ccc(C#N)cc2)n2cncn2)cc1 [Letrozole] (20 µM)	-0.188
CCN(CCO)CCCC(C)Nc1ccnc2cc(Cl)ccc12 (configuration not stated) [Hydroxychloroquine] (9.99954 µM)	-0.0721
N#CC[C@H](C1CCCC1)n1cc(-c2ncnc3[nH]ccc23)cn1 [Ruxolitinib] (20 µM)	-0.126
O=C1CC2(CCCC2)CC(=O)N1CCCCN1CCN(c2ncccn2)CC1 [Buspirone] (10 µM)	-0.117
CC(C)CN(C[C@@H](O)[C@H](Cc1ccccc1)NC(=O)O[C@H]1CCOC1)S(=O)(=O)c1ccc(N)cc1 [Amprenavir] (10 µM)	-0.192
CCCN(CCC)S(=O)(=O)c1ccc(C(=O)O)cc1 [Probenecid] (10 µM)	0.123
CCOC(=O)c1ncn2c1CN(C)C(=O)c1cc(F)ccc1-2 [Flumazenil] (10.00035031 µM)	-0.0896
CO[C@@H]1[C@@H](OC(N)=O)[C@@H](O)[C@H](Oc2ccc3c(O)c(NC(=O)c4ccc(O)c(CC=C(C)C)c4)c(=O)oc3c2C)OC1(C)C [Novobiocin] (10 µM)	0.122

As a working copy, part of the list above.
SMILES	XPO1 fluorescence intensity change (log2)
CC(C)CN(C[C@@H](O)[C@H](Cc1ccccc1)NC(=O)O[C@H]1CCOC1)S(=O)(=O)c1ccc(N)cc1 [Amprenavir] (10 µM)	-0.192
CCCN(CCC)S(=O)(=O)c1ccc(C(=O)O)cc1 [Probenecid] (10 µM)	0.123

Reference: the supplement of paper PMC11098740
